Results taken from publication PMC4606071.
No constants are given. Whether binding was seen depends on the method and setting. For some of these results: Binding seen in cells or lysates may run through a third protein. Some results given as binding are weak or reduced against the parent protein; the word gives no strength. Where a sequence is shown, tags or fusion partners need not be part of it.

B1: BKK1 (BAK1-Like 1, SERK4), full length, split-ubiquitin fusion (receptor, UniProt Q9SKG5 34-620)
chain: DALTQLKNSLSSGDPANNVLQSWDATLVTPCTWFHVTCNPENKVTRVDLGNAKLSGKLVPELGQLLNLQYLELYSNNITGEIPEELGDLVELVSLDLYANSISGPIPSSLGKLGKLRFLRLNNNSLSGEIPMTLTSVQLQVLDISNNRLSGDIPVNGSFSLFTPISFANNSLTDLPEPPPTSTSPTPPPPSGGQMTAAIAGGVAAGAALLFAVPAIAFAWWLRRKPQDHFFDVPAEEDPEVHLGQLKRFTLRELLVATDNFSNKNVLGRGGFGKVYKGRLADGNLVAVKRLKEERTKGGELQFQTEVEMISMAVHRNLLRLRGFCMTPTERLLVYPYMANGSVASCLRERPEGNPALDWPKRKHIALGSARGLAYLHDHCDQKIIHRDVKAANILLDEEFEAVVGDFGLAKLMNYNDSHVTTAVRGTIGHIAPEYLSTGKSSEKTDVFGYGVMLLELITGQKAFDLARLANDDDIMLLDWVKEVLKEKKLESLVDAELEGKYVETEVEQLIQMALLCTQSSAMERPKMSEVVRMLEGDGLAERWEEWQKEEMPIHDFNYQAYPHAGTDWLIPYSNSLIENDYPSGPR
B2: SERK5 (Col-0 ecotype), full length, split-ubiquitin fusion (receptor, UniProt Q8LPS5 25-601)
chain: KTQVDALIALRSSLSSGDHTNNILQSWNATHVTPCSWFHVTCNTENSVTRLDLGSANLSGELVPQLAQLPNLQYLELFNNNITGEIPEELGDLMELVSLDLFANNISGPIPSSLGKLGKLRFLRLYNNSLSGEIPRSLTALPLDVLDISNNRLSGDIPVNGSFSQFTSMSFANNKLRPRPASPSPSPSGTSAAIVVGVAAGAALLFALAWWLRRKLQGHFLDVPAEEDPEVYLGQFKRFSLRELLVATEKFSKRNVLGKGRFGILYKGRLADDTLVAVKRLNEERTKGGELQFQTEVEMISMAVHRNLLRLRGFCMTPTERLLVYPYMANGSVASCLRERPEGNPALDWPKRKHIALGSARGLAYLHDHCDQKIIHLDVKAANILLDEEFEAVVGDFGLAKLMNYNDSHVTTAVRGTIGHIAPEYLSTGKSSEKTDVFGYGVMLLELITGQKAFDLARLANDDDIMLLDWVKEVLKEKKLESLVDAELEGKYVETEVEQLIQMALLCTQSSAMERPKMSEVVRMLEGDGLAERWEEWQKEEMPIHDFNYQAYPHAGTDWLIPYSNSLIENDYPSGPR
B3: BKK1-cYFP (receptor, UniProt Q9SKG5 34-620)
chain: B1 chain
B4: SERK5-cYFP (receptor, UniProt Q8LPS5 25-601)
chain: B2 chain

Key:
[1] = target: BRASSINOSTEROID … 1 (BRI1), full length, split-ubiquitin fusion (Arabidopsis thaliana) (UniProt O22476); assay: two-hybrid; mating-based split ubiquitin system (mbSUS) in yeast; Cub fusions in THY.AP4, Nub fusions in THY.AP5, both orientations; growth of diploids on -AHLT medium with 0, 75, 150 and 400 uM methionine; also beta-galactosidase assays
[2] = target: BRI1-nYFP (Arabidopsis thaliana) (UniProt O22476); assay: split reporter; BiFC: BRI1-nYFP co-expressed with cYFP fusions in Nicotiana benthamiana leaf epidermal cells by Agrobacterium co-injection; YFP fluorescence by confocal microscopy after 72 h

binding [1] | binding [2] | Binder
binds | – | B1
binds weakly | – | B2
– | binds | B3
– | binds weakly | B4
